Measured values reported in article PMC7545708, “The small molecule PSSM0332 disassociates the CRL4A^DCAF8 E3 ligase complex to decrease the ubiquitination of NcoR1 and inhibit the inflammatory response in a mouse sepsis-induced myocardial dysfunction model” (International Journal of Biological Sciences, 2020).
These are yes or no findings as the source states them, for the method shown. Binding seen in cells or lysates may run through a third protein. Some binding calls cover weakened binding; strength is not graded here.

Sequences of proteins named here, by UniProt entry; tags and fusion partners are left off.
UniProt Q8N7N5: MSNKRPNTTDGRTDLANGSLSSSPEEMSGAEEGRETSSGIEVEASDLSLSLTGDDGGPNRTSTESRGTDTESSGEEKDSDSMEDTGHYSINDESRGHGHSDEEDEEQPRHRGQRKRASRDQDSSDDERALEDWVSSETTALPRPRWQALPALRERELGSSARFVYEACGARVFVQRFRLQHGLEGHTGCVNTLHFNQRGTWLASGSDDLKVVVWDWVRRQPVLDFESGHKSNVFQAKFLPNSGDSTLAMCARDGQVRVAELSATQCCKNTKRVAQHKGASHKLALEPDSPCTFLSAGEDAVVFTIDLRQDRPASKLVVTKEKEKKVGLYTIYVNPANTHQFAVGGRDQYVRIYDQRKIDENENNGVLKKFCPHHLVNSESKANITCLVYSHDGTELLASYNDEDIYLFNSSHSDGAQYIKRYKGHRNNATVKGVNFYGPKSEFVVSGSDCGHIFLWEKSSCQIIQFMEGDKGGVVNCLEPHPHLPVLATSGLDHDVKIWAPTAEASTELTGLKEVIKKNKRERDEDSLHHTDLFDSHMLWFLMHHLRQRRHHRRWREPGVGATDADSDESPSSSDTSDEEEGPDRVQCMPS
UniProt O89090: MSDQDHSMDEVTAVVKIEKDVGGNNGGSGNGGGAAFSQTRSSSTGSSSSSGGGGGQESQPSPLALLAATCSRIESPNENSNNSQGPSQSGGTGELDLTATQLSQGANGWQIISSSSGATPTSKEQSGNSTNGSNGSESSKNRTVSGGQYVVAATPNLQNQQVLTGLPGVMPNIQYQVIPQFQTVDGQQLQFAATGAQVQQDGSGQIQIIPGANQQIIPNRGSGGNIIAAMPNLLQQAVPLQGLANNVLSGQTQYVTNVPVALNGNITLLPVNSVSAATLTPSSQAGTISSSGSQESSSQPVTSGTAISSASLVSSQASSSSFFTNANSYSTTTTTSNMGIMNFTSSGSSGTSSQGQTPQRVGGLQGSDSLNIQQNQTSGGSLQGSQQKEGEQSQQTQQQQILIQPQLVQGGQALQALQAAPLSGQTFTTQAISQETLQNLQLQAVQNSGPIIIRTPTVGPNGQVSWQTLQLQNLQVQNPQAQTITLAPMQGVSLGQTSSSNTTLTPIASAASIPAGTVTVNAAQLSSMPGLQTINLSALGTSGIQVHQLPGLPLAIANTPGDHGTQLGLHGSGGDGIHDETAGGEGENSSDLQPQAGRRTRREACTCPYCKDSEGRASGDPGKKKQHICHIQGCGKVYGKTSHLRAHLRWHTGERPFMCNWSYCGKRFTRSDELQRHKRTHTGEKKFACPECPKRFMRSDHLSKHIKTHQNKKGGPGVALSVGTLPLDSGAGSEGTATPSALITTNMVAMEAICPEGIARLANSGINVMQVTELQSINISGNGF
UniProt Q3U1J4: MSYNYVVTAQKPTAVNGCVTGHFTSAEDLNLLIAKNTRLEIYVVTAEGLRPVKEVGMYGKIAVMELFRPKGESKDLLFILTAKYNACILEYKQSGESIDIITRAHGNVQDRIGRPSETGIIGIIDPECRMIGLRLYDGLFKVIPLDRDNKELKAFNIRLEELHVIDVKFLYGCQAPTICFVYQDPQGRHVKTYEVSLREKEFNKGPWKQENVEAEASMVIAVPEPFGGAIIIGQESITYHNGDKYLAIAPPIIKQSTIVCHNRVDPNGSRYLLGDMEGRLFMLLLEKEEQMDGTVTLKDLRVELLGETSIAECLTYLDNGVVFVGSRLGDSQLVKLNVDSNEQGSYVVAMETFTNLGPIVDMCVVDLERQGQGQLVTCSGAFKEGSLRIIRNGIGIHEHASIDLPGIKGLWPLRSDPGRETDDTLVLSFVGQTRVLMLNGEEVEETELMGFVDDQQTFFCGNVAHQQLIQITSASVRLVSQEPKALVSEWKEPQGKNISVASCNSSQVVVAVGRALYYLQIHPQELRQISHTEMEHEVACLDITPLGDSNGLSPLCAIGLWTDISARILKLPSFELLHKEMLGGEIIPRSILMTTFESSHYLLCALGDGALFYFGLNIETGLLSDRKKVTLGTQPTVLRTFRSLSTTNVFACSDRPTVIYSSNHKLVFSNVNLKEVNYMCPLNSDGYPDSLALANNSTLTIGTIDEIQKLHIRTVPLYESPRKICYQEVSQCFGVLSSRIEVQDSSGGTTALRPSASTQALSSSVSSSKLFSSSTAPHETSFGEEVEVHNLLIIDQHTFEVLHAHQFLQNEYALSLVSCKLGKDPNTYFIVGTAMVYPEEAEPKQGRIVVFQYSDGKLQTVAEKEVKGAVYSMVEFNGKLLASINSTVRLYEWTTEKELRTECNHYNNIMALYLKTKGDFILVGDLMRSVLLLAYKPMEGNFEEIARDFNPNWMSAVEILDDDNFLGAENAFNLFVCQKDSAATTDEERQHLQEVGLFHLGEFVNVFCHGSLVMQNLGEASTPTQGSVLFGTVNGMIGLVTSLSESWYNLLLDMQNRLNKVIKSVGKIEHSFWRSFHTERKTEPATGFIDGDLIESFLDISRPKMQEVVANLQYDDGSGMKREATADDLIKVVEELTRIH
UniProt Q60974: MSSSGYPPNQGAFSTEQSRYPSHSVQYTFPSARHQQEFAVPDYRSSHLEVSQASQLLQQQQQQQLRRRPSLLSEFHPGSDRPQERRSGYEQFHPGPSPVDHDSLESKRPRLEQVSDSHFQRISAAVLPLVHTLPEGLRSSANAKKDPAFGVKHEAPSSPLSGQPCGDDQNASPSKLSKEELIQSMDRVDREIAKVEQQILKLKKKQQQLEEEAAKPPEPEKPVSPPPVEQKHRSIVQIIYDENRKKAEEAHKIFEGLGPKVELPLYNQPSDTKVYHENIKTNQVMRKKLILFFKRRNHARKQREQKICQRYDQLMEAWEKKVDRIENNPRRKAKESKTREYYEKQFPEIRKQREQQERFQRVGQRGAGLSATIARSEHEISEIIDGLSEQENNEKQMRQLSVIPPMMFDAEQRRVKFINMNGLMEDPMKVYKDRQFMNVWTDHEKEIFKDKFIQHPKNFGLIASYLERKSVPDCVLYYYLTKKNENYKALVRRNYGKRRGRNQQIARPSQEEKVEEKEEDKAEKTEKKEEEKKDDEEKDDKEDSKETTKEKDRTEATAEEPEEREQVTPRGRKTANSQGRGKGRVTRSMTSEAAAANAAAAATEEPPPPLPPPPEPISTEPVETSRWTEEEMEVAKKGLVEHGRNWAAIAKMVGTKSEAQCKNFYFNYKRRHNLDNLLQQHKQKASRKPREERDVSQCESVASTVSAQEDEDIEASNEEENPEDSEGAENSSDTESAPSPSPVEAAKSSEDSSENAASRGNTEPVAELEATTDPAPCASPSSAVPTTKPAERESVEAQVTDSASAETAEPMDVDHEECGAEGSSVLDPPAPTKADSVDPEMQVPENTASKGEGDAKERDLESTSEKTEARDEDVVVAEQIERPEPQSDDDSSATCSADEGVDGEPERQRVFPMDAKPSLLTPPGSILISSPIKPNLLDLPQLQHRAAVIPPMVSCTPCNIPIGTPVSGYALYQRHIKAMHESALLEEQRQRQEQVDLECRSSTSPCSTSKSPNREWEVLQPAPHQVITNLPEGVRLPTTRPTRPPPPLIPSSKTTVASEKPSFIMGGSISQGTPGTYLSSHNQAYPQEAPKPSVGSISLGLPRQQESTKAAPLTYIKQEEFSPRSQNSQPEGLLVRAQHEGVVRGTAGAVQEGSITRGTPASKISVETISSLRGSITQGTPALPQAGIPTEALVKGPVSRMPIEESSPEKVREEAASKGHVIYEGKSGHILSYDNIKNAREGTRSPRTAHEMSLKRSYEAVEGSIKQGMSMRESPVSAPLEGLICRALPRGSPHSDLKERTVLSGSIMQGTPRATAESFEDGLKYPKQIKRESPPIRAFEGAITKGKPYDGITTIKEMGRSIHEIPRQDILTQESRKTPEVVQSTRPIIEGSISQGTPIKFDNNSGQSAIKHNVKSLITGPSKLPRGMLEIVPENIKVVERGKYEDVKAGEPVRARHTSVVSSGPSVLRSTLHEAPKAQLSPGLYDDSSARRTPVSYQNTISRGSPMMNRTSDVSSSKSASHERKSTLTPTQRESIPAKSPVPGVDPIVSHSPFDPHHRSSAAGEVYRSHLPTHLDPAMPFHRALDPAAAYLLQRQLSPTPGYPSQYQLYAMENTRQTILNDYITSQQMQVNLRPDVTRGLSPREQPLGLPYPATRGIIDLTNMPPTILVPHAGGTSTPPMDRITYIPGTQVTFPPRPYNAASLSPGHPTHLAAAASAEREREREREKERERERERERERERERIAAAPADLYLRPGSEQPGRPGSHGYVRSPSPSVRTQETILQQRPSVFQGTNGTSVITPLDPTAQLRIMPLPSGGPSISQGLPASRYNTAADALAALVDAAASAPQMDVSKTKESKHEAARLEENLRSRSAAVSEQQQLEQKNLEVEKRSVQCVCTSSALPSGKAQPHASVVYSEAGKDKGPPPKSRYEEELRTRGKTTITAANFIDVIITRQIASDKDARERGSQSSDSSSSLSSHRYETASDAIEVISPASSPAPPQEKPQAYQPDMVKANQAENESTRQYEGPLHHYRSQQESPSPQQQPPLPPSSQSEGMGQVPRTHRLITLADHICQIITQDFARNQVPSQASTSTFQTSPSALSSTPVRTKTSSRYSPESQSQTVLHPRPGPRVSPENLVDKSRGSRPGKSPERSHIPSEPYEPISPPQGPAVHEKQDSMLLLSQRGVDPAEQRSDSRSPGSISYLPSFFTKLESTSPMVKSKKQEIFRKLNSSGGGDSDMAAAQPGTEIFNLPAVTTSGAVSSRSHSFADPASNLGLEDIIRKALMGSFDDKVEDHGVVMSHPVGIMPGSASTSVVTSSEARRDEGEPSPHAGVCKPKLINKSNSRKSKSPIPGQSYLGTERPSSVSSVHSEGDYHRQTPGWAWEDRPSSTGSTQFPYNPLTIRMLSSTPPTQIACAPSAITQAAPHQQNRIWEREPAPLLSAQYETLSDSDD

Columns and labels:
[1] = biological target: DCAF8 (DDB1 and CUL4 associated factor 8), endogenous in mouse heart tissue (mouse (endogenous in heart tissue)) (UniProt Q8N7N5); assay: co-IP; endogenous proteins; mixed heart tissues of three control or three SIMD mice lysed in RIPA buffer; IP with antibody-coupled protein A beads (anti-CUL4A, anti-DDB1, anti-DCAF8 or anti-SP1; IgG as control); immunoblot
[2] = biological target: SP1 transcription factor, endogenous in mouse heart tissue (mouse (endogenous in heart tissue)) (UniProt O89090); assay: as above
[3] = biological target: DDB1 (DNA damage-binding protein 1), endogenous in mouse heart tissue (mouse (endogenous in heart tissue)) (UniProt Q3U1J4); assay: as above
[4] = biological target: 2xFlag-DDB1 (pcDNA3-2×Flag-DDB1) (UniProt Q3U1J4); assay: co-IP; RAW264.7 cells cotransfected with pcDNA3-2×Flag and pcDNA3-6×Myc plasmids, 48 h; lysate with anti-Flag agarose or anti-Myc agarose; 5 washes with RIPA buffer; immunoblot with anti-Flag and anti-Myc
[5] = biological target: Flag-SP1 (UniProt O89090); assay: as above
[6] = biological target: 2xFlag-DCAF8 (pcDNA3-2×Flag-DCAF8) (UniProt Q8N7N5); assay: as above

Substance: NcoR1 (nuclear receptor corepressor 1), endogenous in mouse heart tissue (from UniProt Q60974 1-2453)
- binding [1]: binds
- binding [2]: binds

Substance: DCAF8 (DDB1 and CUL4 associated factor 8), endogenous in mouse heart tissue (from UniProt Q8N7N5 1-591)
- binding [3]: binds

Substance: 6xMyc-DCAF8 (pcDNA3-6×Myc-DCAF8) (from UniProt Q8N7N5 1-591)
- binding [4]: binds
- binding [5]: no binding

Substance: 6xMyc-NcoR1 (pcDNA3-6×Myc-NcoR1) (from UniProt Q60974 1-2453)
- binding [5]: binds
- binding [6]: binds
